{
  "source": "patent US20070059339A1",
  "about": "“1-O-BETA-D-glucopyranosylgeraniol-10,5-olide and use thereof” (ISKRA INDUSTRY CO., LTD., priority 2005, published 2007)",
  "assay": "Obesity ameliorating, lipid metabolism ameliorating and hypoglycemic action in mice bred with a high fat diet",
  "type": "in vivo, ddY male SPF mice",
  "conditions": "during the 6 week administration period, 250 mg/kg once a day",
  "description": "6 week-old ddY male SPF mice (Nippon .SLC, body weight: about 30 g) were pre-bred for 1 week, then, divided into two groups of a control group and an administration group (5 mice for each group). Each of the mice in both the groups was bred for 6 weeks with a high fat diet (lard 40%, corn starch 10%, granulated sugar 9%, mineral mix 4%, vitamin mix 1%, casein 29%, cellulose 5%, lactose 2%). For the mice in the administration group, a specimen solution prepared by dissolving the compound (I) in purified water was continuously administered for 6 weeks with a dose of 250 mg/kg once a day while allowing water-drinking, and the body weight was measured at a frequency of once a week, during the feeding period with the high fat diet. For the mice in the control group, purified water was administered for 6 weeks instead of the specimen solution while allowing water-drinking.\nThe average value of the body weight of mice in each group and the standard error thereof were measured, and a significant difference test (t-test) between both the groups was carried out.\nOn the other hand, after completion of the above-mentioned continuous administration allowing water-drinking for 6 weeks, serum was collected from each mouse and blood biochemical values were measured, and liver and fat were excised and the weights of them were measured, respectively. […]",
  "data": [
    {"smiles": "CC(C)=CC1C/C(=C/CO[C@@H]2OC(CO)[C@@H](O)C(O)C2O)C(=O)O1", "note": "(stereo partly drawn) [compound (I), 1-O-β-D-glucopyranosylgeraniol-10,5-olide]", "values": [
      {"measurement": "Diet taking amount versus control group", "value": "approximately the same"},
      {"measurement": "Water taking amount versus control group", "value": "approximately the same"}
    ]}
  ]
}
